{"sequences": {"note": "Chains of the proteins cited; added tags and fusions are not shown.", "UniProt Q0JBA9, entry or part of it": "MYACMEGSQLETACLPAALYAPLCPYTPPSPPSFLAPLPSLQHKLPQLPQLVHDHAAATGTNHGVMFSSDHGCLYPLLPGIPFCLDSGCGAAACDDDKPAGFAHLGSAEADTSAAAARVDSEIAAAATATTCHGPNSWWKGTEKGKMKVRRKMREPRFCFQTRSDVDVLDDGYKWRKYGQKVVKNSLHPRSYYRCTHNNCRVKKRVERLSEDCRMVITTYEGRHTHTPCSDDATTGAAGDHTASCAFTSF"}, "source": "paper PMC7819943", "about": "“Rice protein-binding microarrays: a tool to detect cis-acting elements near promoter regions in rice”", "note": "The other results are listed elsewhere or left out.", "data": [{"molecular_target": "OsWRKY34 (Oryza sativa, UniProt Q0JBA9 1-250)", "assay": "protein-binding microarray (RPBM); PBS, 2% BSA, 51.3 ng/ul salmon testes DNA, 50 uM zinc acetate, 200 nM TF, 25 C, 1 h; high values mean tight binding", "conditions": "protein: recombinant; tags: N-terminal polyhistidine and DsRed monomer fusion (pET32a); label: CyDye5-dUTP incorporated in the synthesized complementary strand; 3' TTTTT single-stranded linker to array surface; dsDNA, one strand shown", "summary_of_the_method": "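Binding signal is defined as the fluorescence intensity of each feature in arbitrary units, read on an Axon 4000B scanner. Transcription factors with N-terminal polyhistidine and DsRed fusions came from E. coli BL21-CodonPlus and were purified on Ni–NTA. They were incubated at 200 nM for 1 h at 25 °C on a custom Agilent array that had been made double-stranded with Cy5-dUTP, with 50 µM zinc acetate present, and the array was washed.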", "values": [{"sequence": "ACACCTTGTCACATTCCAGTCCATGCCCTCTCCCAGATCGCGGAGTCACCTAGTGCAG", "binding signal": "8400 fluorescence intensity (a.u.)"}, {"sequence": "TTTTTGTTTCTTTTTTCCTTGACCCCTGGCAACGGCTTTCCGGAGTCACCTAGTGCAG", "binding signal": "12300 fluorescence intensity (a.u.)"}, {"sequence": "CTGGGTGGGGAATTGGTTTAGTGAAGGATTAGTTGCTGATCGGAGTCACCTAGTGCAG", "binding signal": "9770 fluorescence intensity (a.u.)"}, {"sequence": "AACGTGTCGTGTCGCCCATCACCTTTGCCCGACGATATCGCGGAGTCACCTAGTGCAG", "binding signal": "9610 fluorescence intensity (a.u.)"}, {"sequence": "CCCTGGCGGTCACTCTTCTCCATTTCCGCCGCCGTCGTCGCGGAGTCACCTAGTGCAG", "binding signal": "10700 fluorescence intensity (a.u.)"}, {"sequence": "ACCCCGTACTCGTCGTAATACTTTTTTTAATCTCTTCTCGCGGAGTCACCTAGTGCAG", "binding signal": "10700 fluorescence intensity (a.u.)"}, {"sequence": "GCAAATATATTCCATTTACATAGCTACATTGTTCCTTCTCCGGAGTCACCTAGTGCAG", "binding signal": "9600 fluorescence intensity (a.u.)"}, {"sequence": "TGCAGTTTCTTTCATAATCTTCAATTCTTCTAAACAGTCTCGGAGTCACCTAGTGCAG", "binding signal": "11100 fluorescence intensity (a.u.)"}, {"sequence": "CTACGCTATCCCCGTATAAAATTTGCGTCACTCCACCATCCGGAGTCACCTAGTGCAG", "binding signal": "8230 fluorescence intensity (a.u.)"}, {"sequence": "TTGCGACGTTTGACCACTCGTCTTATTTAAATTTTTTTTACGGAGTCACCTAGTGCAG", "binding signal": "11900 fluorescence intensity (a.u.)"}, {"sequence": "ACTTTTGCAAAATCAATTTTCTAAAAAGTTTGACCAAATTCGGAGTCACCTAGTGCAG", "binding signal": "8370 fluorescence intensity (a.u.)"}, {"sequence": "CTCGCGCACCGCATGCTAAAGCTACCACCAGGCACGTACACGGAGTCACCTAGTGCAG", "binding signal": "14000 fluorescence intensity (a.u.)"}, {"sequence": "CCAATCCAAACCATTCTGCTGTTCTCTTCCCGTCGCCATGCGGAGTCACCTAGTGCAG", "binding signal": "8500 fluorescence intensity (a.u.)"}, {"sequence": "CAGAGTGCAAGCCAATCATCGCCACCACGCTACGCTACACCGGAGTCACCTAGTGCAG", "binding signal": "8130 fluorescence intensity (a.u.)"}, {"sequence": "ATTAGCCTCTGTTGCTTGCTTAGCTATGGTCTCGCTCATACGGAGTCACCTAGTGCAG", "binding signal": "10300 fluorescence intensity (a.u.)"}, {"sequence": "TTACCTAACTTTAGTCATCCATCTTATTTAAAATTTTTTTCGGAGTCACCTAGTGCAG", "binding signal": "8080 fluorescence intensity (a.u.)"}, {"sequence": "GAGGCTTCAACTGCTCCATTCTAATTGGGCCGGAGTGTGACGGAGTCACCTAGTGCAG", "binding signal": "9590 fluorescence intensity (a.u.)"}, {"sequence": "TATATATACACACACACACAAACACACACACACACACACACGGAGTCACCTAGTGCAG", "binding signal": "8720 fluorescence intensity (a.u.)"}, {"sequence": "CCCACAACACAAGTGTTCCCACTACCACTAACATACACTCCGGAGTCACCTAGTGCAG", "binding signal": "8800 fluorescence intensity (a.u.)"}, {"sequence": "CGTTTGCTCTATGCCTCTATTTTTTTTTATTTGGAACTCTCGGAGTCACCTAGTGCAG", "binding signal": "10700 fluorescence intensity (a.u.)"}, {"sequence": "GCATTTCCTACCACATTCTGAATCCGTCTTCTTTTAAAATCGGAGTCACCTAGTGCAG", "binding signal": "12300 fluorescence intensity (a.u.)"}, {"sequence": "AGCATTCCATCAGATATTGTTAGTTTGCCCCATTTGTCACCGGAGTCACCTAGTGCAG", "binding signal": "8400 fluorescence intensity (a.u.)"}, {"sequence": "GCCCATTAACCTACTGCCCGGCCTAATATGAATCGGAAGGCGGAGTCACCTAGTGCAG", "binding signal": "8120 fluorescence intensity (a.u.)"}, {"sequence": "TGCAACCACCACCACCACGTCCCAAACTCGCACGTTTCTCCGGAGTCACCTAGTGCAG", "binding signal": "9390 fluorescence intensity (a.u.)"}, {"sequence": "CAGTCTAAGGCATGCCCGTTCCGACCGACCCATATCCACGCGGAGTCACCTAGTGCAG", "binding signal": "8270 fluorescence intensity (a.u.)"}, {"sequence": "CCGCGTTCCCACCCCGCGCGTCGCGATCCCACCTATGCGACGGAGTCACCTAGTGCAG", "binding signal": "8470 fluorescence intensity (a.u.)"}, {"sequence": "GTCGTCTCTCGCATTTTTCCTTTGCTCCTCTGGTTGGAAGCGGAGTCACCTAGTGCAG", "binding signal": "10600 fluorescence intensity (a.u.)"}, {"sequence": "TCAATGCAACAGCTAGTACTACTCTTACTCCCAATGAAAACGGAGTCACCTAGTGCAG", "binding signal": "8240 fluorescence intensity (a.u.)"}, {"sequence": "CCGGGGATGATTCCGCCGAGTGTGTTATTGATTGTATGATCGGAGTCACCTAGTGCAG", "binding signal": "8640 fluorescence intensity (a.u.)"}, {"sequence": "GGGGAGATGGTTTGGTGAGGAGTTGTGTGTTGCTGCAGCTCGGAGTCACCTAGTGCAG", "binding signal": "8440 fluorescence intensity (a.u.)"}, {"sequence": "AGCACCATATATACATCACCACCCTGCTCTGATCAAGCATCGGAGTCACCTAGTGCAG", "binding signal": "8050 fluorescence intensity (a.u.)"}, {"sequence": "CAACGCATTTTTTTCTGTTTACCGGCAAGCTGAAGCTTTTCGGAGTCACCTAGTGCAG", "binding signal": "8250 fluorescence intensity (a.u.)"}, {"sequence": "GCTTGTTCTTCCCGGCCATCTTCTCTTCCCCATCTTCCGGCGGAGTCACCTAGTGCAG", "binding signal": "10700 fluorescence intensity (a.u.)"}, {"sequence": "CGCTACAGTACCTTCTTCCTGCTCCAGCCGAGCCTGAACACGGAGTCACCTAGTGCAG", "binding signal": "8410 fluorescence intensity (a.u.)"}, {"sequence": "TGGTGGTGGTGGGGAGAGAGAGAGAGAGAACTTAACGATGCGGAGTCACCTAGTGCAG", "binding signal": "9080 fluorescence intensity (a.u.)"}, {"sequence": "CCTCAAAAGTACCAGCCGCCTCATCTTTCCGCTTATGTTTCGGAGTCACCTAGTGCAG", "binding signal": "11000 fluorescence intensity (a.u.)"}, {"sequence": "GGTGACTGCTTCCACTTTTAGCTATTTCCTGTTCACGGTTCGGAGTCACCTAGTGCAG", "binding signal": "15600 fluorescence intensity (a.u.)"}, {"sequence": "TATCTCATTTAGGTTTGGATAGGTGTTTGACTACTAATTCCGGAGTCACCTAGTGCAG", "binding signal": "9520 fluorescence intensity (a.u.)"}, {"sequence": "ATTCCACATTTTTTAGTCGCTTTAACTCCACTGAATATTTCGGAGTCACCTAGTGCAG", "binding signal": "8890 fluorescence intensity (a.u.)"}, {"sequence": "CTGACCTATTAGTATCAGCCCATATATTTTGCACAAATCCCGGAGTCACCTAGTGCAG", "binding signal": "8050 fluorescence intensity (a.u.)"}, {"sequence": "CGGCCCATAAACATCCCATCGGCCATCTCTGCAACGCCTCCGGAGTCACCTAGTGCAG", "binding signal": "8490 fluorescence intensity (a.u.)"}, {"sequence": "GCCCATTAATTTCTCGTCGTCTCCCTTTTCTCAAACAGTACGGAGTCACCTAGTGCAG", "binding signal": "8120 fluorescence intensity (a.u.)"}]}]}
